PubChem BioAssay AID1259405, NCATS | 2018
This is a random part of about 50,000 reagents. In the full data, about 4,000 (8%) were called active. 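Mouse siRNA library applied to hamster cells; one well for each siRNA.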 Unmarked entries are inactive. The numbers tell different reagents against one gene apart.

Assay: 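Knock-downs that lift recombinant protein yield in hamster ovary cells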 (primary screen)
Cell system: Chinese hamster CHO-K1 ovary cells with stable secreted eGFP expression
Reagent: single siRNA against mouse genes, 0.8 pmol siRNA per well (2 µl of 400 nM stock)
Timing: 3 days
Measurement: 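Percent of the per-plate non-targeting control median for intracellular GFP per well by laser scanning cytometry and for cell viability by ATP luminescence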
Scale: GFP, % of control: higher = more GFP per well, higher productivity; viability (ATP), % of control: higher = more viable cells (more ATP)
Rule for the call: 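a knock-down is called active if GFP reaches 120% or more of non-targeting control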

Depletion of Ube2e2 (GeneID 218793) #1 came out at: GFP, % of control 90.6; viability (ATP), % of control 86.1.
Silencing of Ube2e2 (GeneID 218793) #2 resulted in: GFP, % of control 72.4; viability (ATP), % of control 75.6.
For Ube2e2 (GeneID 218793) #3, the entry reads GFP, % of control 79.9; viability (ATP), % of control 115.
Against Cpa3 (GeneID 12873) #1, the entry reads GFP, % of control 101; viability (ATP), % of control 85.3.
Depletion of Cpa3 (GeneID 12873) #2 gave: GFP, % of control 37.4; viability (ATP), % of control 48.2.
Cpa3 (GeneID 12873) #3 showed GFP, % of control 71.5; viability (ATP), % of control 49.5.
After knock-down of Rab2b (GeneID 76338) #1 the results were GFP, % of control 78.9; viability (ATP), % of control 123.
Knock-down of Rab2b (GeneID 76338) #2 came out at: GFP, % of control 151 (active); viability (ATP), % of control 117.
With knock-down of Rab2b (GeneID 76338) #3, the record shows GFP, % of control 63; viability (ATP), % of control 111.
For Nlrp4c (GeneID 83564) #1, the values are GFP, % of control 57.2; viability (ATP), % of control 52.6.
Silencing of Nlrp4c (GeneID 83564) #2 gave: GFP, % of control 97.3; viability (ATP), % of control 69.9.
Nlrp4c (GeneID 83564) #3 gave GFP, % of control 58; viability (ATP), % of control 51.9.
For Nle1 (GeneID 217011) #1, the values are GFP, % of control 35.2; viability (ATP), % of control 60.3.
Against Nle1 (GeneID 217011) #2, the entry reads GFP, % of control 47.7; viability (ATP), % of control 84.
Nle1 (GeneID 217011) #3 scored GFP, % of control 112; viability (ATP), % of control 143.
Snrk (GeneID 20623) showed GFP, % of control 54.5; viability (ATP), % of control 62.9.
Depletion of Tmem123 (GeneID 71929) #1 resulted in: GFP, % of control 87.7; viability (ATP), % of control 89.2.
With knock-down of Tmem123 (GeneID 71929) #2, the screen gave GFP, % of control 80.4; viability (ATP), % of control 81.6.
Against Tmem123 (GeneID 71929) #3 the deposit lists GFP, % of control 71.4; viability (ATP), % of control 68.6.
Silencing of Pim1 (GeneID 18712) came out at: GFP, % of control 99.7; viability (ATP), % of control 79.6.

A few values from the list.
Nle1 (GeneID 217011) #3, viability (ATP), % of control → 143
Ube2e2 (GeneID 218793) #1, GFP, % of control → 90.6
Value of Nlrp4c (GeneID 83564) #2 in “viability (ATP), % of control”: 69.9

Further records follow:
With knock-down of Islr2 (GeneID 320563) #1 the results were GFP, % of control 31.9; viability (ATP), % of control 61.9.
Silencing of Islr2 (GeneID 320563) #2 came out at: GFP, % of control 76.4; viability (ATP), % of control 55.8.
Silencing of Islr2 (GeneID 320563) #3 came out at: GFP, % of control 35.2; viability (ATP), % of control 49.5.
Silencing of Or12e7 (GeneID 258834) #1 gave: GFP, % of control 151 (active); viability (ATP), % of control 75.9.
Or12e7 (GeneID 258834) #2 gave GFP, % of control 92.6; viability (ATP), % of control 76.4.
Silencing of Or12e7 (GeneID 258834) #3 gave: GFP, % of control 89.5; viability (ATP), % of control 73.1.
For Ada (GeneID 11486) #1 the deposit lists GFP, % of control 87.1; viability (ATP), % of control 45.1.
Knock-down of Ada (GeneID 11486) #2 resulted in: GFP, % of control 103; viability (ATP), % of control 73.6.
With knock-down of Ada (GeneID 11486) #3, the record shows GFP, % of control 120; viability (ATP), % of control 113.
Zbed4 (GeneID 223773) #1 showed GFP, % of control 46.3; viability (ATP), % of control 45.3.
With knock-down of Zbed4 (GeneID 223773) #2, the screen gave GFP, % of control 38.5; viability (ATP), % of control 67.8.
For Zbed4 (GeneID 223773) #3 the deposit lists GFP, % of control 79.8; viability (ATP), % of control 102.
Fzd10 (GeneID 93897) #1 scored GFP, % of control 71.6; viability (ATP), % of control 130.
With knock-down of Fzd10 (GeneID 93897) #2 the results were GFP, % of control 99; viability (ATP), % of control 89.2.
After knock-down of Iqcc (GeneID 230767) #1 the results were GFP, % of control 32; viability (ATP), % of control 45.6.
Knock-down of Iqcc (GeneID 230767) #2 came out at: GFP, % of control 93.5; viability (ATP), % of control 116.
Iqcc (GeneID 230767) #3 showed GFP, % of control 121 (active); viability (ATP), % of control 140.
For Irx6 (GeneID 64379) #1, the entry reads GFP, % of control 53.9; viability (ATP), % of control 52.9.
After knock-down of Irx6 (GeneID 64379) #2, the screen gave GFP, % of control 38.5; viability (ATP), % of control 53.2.
After knock-down of Irx6 (GeneID 64379) #3, the screen gave GFP, % of control 87.3; viability (ATP), % of control 104.
